At least one peptide structure holds a part that was inferred or is arguable (an end, a ring closure or a residue). Ends that are not written are not given here.
Test system: human HepG2 cells
Assay: Iodine labeled LDL binding in HepG2 cells in culture
Format: cell-based
Settings: 0.13-1.4 μM, added 24-48 hours after incubation began, FIG. 4
Method: With reference to FIGS. 1a-b, an experiment was conducted wherein iodine labeled LDL was incubated with HepG2 or rat hepatocytes in culture with and without cleaved α1 -antitrypsin or hypocholesterolemic peptides. The cleaved α1 -antitrypsin and hypocholesterolemic peptides were added 24-48 hr after incubation began in 2 micromolar (μM) or 5 μM concentrations. The bound LDL was quantitated by counting. The control indicates the amount of bound LDL obtained when no cleaved α1 -antitrypsin or hypocholesterolemic peptides are present. FIGS. 1a-b show maximum LDL binding occurs when 2 μM α1 -antitrypsin or its peptide derivatives are added.
An acetyl derivative of SEQ ID No. 16 was tested experimentally in human Hep G2 cells for LDL binding in the same manner as described above in connection with FIGS. 1a-b. […] ID No. 16. The sub-fragment was added 24-48 hours after incubation began in concentrations ranging from 0.13-1.4 μM.

Ac-LFMGKVVN [acetyl derivative of SEQ ID No. 16]
LDL binding: LDL binding increased with increasing concentrations

— patent US6150332A, “Method and composition for lowering low density lipoprotein cholesterol” (Virginia Commonwealth University, priority 1998, dated 2000)
